The test has as its target T1, SET domain containing lysine methyltransferase 7 (SET7/9) (human (endogenous in HUVEC)) (UniProt Q8WTS6).
T1 sequence: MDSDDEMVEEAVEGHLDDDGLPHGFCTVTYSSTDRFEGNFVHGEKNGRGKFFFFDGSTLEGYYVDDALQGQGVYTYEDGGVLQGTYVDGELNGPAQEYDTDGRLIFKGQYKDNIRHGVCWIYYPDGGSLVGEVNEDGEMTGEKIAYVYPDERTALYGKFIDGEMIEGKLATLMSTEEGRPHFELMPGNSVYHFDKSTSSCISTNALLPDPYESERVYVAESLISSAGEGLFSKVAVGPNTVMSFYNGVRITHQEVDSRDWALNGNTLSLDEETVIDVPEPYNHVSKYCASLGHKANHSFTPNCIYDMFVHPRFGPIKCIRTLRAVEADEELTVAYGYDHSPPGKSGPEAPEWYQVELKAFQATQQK
Kind of test: co-IP; 100 μg lysate of hyperglycemia-induced HUVECs treated with Set7_1a or DMSO for 24 h under hypoxia; incubated with 10 μg SET7/9 antibody in 500 μL cell lysis buffer at 4 °C for 12 h; magnetic beads; blots with anti-SET7/9, anti-methyl lysine and anti-HIF-1α.

Protein sequences, listed by entry. Tags and fused reporters are not part of them.
UniProt Q16665: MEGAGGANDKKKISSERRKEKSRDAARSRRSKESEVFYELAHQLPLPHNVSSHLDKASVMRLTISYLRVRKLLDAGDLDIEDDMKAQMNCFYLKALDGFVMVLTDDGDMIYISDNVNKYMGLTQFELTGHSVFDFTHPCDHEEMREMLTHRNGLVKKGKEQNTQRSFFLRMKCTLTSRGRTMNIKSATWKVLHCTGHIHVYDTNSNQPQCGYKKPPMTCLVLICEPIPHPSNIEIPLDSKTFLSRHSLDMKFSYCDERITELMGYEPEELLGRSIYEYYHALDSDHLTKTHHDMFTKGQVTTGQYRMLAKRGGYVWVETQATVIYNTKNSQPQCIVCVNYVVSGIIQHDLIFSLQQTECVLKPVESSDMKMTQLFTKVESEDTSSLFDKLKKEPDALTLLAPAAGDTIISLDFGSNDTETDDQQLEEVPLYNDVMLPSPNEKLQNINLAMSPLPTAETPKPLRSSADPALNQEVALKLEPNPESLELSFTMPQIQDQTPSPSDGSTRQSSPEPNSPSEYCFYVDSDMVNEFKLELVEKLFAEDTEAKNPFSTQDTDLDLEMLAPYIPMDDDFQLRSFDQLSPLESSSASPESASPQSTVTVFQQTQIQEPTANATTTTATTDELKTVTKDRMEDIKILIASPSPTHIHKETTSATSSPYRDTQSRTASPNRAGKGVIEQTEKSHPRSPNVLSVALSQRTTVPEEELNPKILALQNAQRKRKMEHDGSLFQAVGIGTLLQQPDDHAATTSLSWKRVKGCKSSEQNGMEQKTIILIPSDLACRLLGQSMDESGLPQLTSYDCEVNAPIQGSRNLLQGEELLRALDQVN

The results in this text go back to PMC9356058, “Homocysteine-targeting compounds as a new treatment strategy for diabetic wounds via inhibition of the histone methyltransferase SET7/9” (Experimental & Molecular Medicine, 2022).

These are yes or no findings as the source states them, for the method shown. Binding seen in cells or lysates may run through a third protein. Some results given as binding are weak or reduced against the parent protein; the word gives no strength.

Turning to “hypoxia-inducible factor-1 alpha (HIF-1α) (from UniProt Q16665 1-826)”, the binding result is recorded as “binds”.
